Some of the results follow.

Chains of the proteins cited; added tags and fusions are not shown. Lines headed by an entry give the natural chain unless they say otherwise; changes in a name come on top.
UniProt P47985: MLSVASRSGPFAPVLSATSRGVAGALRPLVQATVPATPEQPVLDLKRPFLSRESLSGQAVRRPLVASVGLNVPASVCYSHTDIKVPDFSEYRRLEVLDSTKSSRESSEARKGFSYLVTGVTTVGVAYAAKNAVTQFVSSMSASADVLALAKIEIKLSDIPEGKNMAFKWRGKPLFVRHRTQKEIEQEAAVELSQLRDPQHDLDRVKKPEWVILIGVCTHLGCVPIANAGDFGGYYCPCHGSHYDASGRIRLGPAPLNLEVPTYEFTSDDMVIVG
UniProt Q53GS9: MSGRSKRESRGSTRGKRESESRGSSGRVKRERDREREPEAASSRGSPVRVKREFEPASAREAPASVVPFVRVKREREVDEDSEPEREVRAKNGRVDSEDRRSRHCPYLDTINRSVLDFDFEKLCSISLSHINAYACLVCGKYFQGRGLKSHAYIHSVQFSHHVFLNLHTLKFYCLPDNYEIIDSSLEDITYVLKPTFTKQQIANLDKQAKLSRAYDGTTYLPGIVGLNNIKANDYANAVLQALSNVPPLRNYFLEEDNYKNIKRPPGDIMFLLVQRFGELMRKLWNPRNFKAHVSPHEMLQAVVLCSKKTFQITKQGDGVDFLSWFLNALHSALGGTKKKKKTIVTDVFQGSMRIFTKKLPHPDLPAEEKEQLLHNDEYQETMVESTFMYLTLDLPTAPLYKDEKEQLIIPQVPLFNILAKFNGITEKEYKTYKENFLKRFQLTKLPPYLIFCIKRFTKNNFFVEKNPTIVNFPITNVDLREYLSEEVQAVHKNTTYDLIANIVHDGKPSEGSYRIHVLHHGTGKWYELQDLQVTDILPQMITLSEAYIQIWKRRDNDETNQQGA
UniProt Q96BW1: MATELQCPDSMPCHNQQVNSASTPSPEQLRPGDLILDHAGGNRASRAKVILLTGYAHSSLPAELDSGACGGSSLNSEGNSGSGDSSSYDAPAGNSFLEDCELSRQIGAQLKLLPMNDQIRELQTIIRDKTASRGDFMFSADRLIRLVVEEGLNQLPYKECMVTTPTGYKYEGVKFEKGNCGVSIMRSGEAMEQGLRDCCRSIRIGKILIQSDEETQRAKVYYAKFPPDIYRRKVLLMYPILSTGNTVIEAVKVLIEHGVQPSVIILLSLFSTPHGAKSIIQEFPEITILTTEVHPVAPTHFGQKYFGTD
UniProt Q92995: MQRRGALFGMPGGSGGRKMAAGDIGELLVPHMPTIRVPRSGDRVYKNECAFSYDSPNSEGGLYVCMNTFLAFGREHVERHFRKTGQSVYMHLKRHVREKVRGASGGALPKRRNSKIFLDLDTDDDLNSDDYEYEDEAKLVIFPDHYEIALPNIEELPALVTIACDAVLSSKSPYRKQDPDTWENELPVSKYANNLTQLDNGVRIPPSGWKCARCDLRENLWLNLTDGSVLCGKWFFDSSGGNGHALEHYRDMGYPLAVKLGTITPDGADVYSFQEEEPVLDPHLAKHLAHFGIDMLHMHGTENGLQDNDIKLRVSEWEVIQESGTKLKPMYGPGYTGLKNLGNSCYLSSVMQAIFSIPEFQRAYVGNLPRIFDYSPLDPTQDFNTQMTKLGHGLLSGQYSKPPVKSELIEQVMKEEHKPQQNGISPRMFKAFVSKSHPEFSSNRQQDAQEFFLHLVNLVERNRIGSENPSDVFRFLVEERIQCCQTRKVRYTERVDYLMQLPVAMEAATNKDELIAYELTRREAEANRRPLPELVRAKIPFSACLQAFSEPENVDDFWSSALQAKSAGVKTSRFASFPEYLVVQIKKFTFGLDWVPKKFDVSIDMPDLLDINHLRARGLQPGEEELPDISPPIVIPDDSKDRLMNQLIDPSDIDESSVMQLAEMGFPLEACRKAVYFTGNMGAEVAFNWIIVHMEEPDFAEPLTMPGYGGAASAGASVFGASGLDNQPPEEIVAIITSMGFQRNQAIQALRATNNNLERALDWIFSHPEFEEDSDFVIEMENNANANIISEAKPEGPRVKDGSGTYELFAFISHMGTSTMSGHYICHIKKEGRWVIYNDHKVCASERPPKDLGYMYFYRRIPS
UniProt Q6UW78: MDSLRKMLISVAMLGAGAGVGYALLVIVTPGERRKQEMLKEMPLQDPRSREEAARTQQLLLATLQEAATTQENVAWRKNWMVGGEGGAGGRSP
UniProt Q86UV5: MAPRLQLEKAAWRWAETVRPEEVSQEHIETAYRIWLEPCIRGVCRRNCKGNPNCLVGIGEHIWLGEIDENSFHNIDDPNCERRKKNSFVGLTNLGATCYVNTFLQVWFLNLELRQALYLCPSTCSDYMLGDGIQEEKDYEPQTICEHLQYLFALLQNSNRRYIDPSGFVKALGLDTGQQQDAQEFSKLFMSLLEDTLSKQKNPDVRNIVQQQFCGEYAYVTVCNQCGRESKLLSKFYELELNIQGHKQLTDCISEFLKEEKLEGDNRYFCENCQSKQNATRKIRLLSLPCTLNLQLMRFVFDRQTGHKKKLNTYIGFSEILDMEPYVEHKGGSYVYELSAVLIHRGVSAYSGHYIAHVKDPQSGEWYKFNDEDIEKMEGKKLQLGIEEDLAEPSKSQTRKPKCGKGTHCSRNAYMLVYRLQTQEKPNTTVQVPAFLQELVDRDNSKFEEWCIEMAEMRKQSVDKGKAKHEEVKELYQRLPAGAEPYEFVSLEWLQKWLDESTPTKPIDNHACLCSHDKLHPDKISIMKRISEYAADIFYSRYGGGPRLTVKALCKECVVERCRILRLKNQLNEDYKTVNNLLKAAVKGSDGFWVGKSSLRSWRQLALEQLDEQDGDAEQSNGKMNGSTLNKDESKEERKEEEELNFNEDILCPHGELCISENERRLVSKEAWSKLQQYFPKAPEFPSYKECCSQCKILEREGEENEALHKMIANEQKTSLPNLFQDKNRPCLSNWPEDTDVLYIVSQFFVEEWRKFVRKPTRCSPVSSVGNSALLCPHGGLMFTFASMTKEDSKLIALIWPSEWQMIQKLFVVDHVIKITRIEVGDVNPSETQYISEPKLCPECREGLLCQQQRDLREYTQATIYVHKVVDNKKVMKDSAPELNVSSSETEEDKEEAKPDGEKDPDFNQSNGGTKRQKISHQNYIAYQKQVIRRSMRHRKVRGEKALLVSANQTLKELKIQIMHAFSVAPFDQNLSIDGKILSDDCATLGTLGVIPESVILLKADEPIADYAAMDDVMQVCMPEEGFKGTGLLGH
UniProt Q9BZX2: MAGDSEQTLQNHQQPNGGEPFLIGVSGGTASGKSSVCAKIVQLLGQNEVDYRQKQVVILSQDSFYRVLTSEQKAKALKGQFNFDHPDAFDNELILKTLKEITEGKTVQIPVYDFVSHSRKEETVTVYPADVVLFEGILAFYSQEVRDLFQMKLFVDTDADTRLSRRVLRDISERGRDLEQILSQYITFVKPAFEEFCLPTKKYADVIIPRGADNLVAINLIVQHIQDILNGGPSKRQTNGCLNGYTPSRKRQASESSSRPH
UniProt Q9Y3A2: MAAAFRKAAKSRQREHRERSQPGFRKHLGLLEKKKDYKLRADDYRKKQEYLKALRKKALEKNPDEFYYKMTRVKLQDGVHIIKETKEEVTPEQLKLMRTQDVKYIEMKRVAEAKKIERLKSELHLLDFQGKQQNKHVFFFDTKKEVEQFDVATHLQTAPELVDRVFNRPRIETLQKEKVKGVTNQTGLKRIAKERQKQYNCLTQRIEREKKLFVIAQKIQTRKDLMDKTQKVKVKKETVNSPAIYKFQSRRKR
UniProt Q96T88: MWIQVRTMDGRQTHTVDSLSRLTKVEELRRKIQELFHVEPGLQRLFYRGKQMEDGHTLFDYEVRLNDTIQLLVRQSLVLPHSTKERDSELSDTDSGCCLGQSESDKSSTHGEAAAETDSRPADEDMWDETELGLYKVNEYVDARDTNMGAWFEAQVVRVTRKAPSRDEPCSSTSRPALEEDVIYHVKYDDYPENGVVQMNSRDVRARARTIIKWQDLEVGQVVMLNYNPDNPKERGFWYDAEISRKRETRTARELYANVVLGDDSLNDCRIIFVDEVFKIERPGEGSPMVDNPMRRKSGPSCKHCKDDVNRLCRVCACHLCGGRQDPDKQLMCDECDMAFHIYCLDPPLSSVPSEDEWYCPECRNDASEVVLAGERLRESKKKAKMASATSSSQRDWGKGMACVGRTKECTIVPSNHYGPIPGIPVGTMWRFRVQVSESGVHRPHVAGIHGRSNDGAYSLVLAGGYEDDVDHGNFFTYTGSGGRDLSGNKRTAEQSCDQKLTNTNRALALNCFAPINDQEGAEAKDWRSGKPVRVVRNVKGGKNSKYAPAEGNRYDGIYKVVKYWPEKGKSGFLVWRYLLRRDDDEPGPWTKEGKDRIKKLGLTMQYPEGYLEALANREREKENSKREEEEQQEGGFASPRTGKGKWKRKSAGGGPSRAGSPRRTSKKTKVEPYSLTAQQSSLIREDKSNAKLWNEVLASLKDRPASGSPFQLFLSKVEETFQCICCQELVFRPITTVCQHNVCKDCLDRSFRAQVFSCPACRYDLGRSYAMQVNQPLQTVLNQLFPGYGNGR

This passage reports log2 fold change results from the supplement of paper PMC10849652.

Compound in this experiment: c1ccc([C@@H]2C[C@H]2NC2CCNCC2)cc1
In words: log2 fold change, soluble protein after heating vs DMSO (PISA); higher = thermal stabilisation; K562 lysate, 10 uM; active = over 0.2 and 3.5 SD of the protein, either way, in both replicates (recomputed). Summed up: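 The values are log-two fold changes in thermal stability compared with solvent controls and come from duplicates. They were obtained by TMTpro 16plex LC-MS/MS, with channel sums equalised, on the supernatant after 21,000xg for 90 min. That supernatant came from crude K562 extract at 1 mg/mL protein treated with 10 μM compound for 30 min, heated for 3 min across 48°C-58°C, pooled and brought to 0.5% NP-40 at 4°C.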
As for UQCRFS1 (UniProt P47985), the log2 fold change is inactive: 0.032.
As for USP39 (UniProt Q53GS9), the log2 fold change is inactive: 0.042.
With UPRT (UniProt Q96BW1) the figure was inactive: 0.027.
Consider USP13 (UniProt Q92995), for which the log2 fold change is inactive: 0.019.
Regarding UQCC3 (UniProt Q6UW78), the log2 fold change was inactive: -0.451.
Turning to USP48 (UniProt Q86UV5), the log2 fold change is inactive: -0.187.
For UCK2 (UniProt Q9BZX2), the log2 fold change is inactive: -0.05.
For the target UTP11 (UniProt Q9Y3A2), the log2 fold change was inactive: -0.017.
For UHRF1 isoform 2 (UniProt Q96T88), the log2 fold change was inactive: -0.003.
